The target of this experiment is Morgue:3xFLAG (Drosophila) (UniProt Q9Y165). Description: co-IP; lysate of whole adult flies on M2 anti-FLAG resin; anti-SkpA and anti-ubiquitin Western blots of the eluate.

The chains behind the UniProt entries cited, without tags or fusion partners. Where a name states a change or a piece, a line headed by the entry shows the natural chain unless it says otherwise.
UniProt Q9Y165: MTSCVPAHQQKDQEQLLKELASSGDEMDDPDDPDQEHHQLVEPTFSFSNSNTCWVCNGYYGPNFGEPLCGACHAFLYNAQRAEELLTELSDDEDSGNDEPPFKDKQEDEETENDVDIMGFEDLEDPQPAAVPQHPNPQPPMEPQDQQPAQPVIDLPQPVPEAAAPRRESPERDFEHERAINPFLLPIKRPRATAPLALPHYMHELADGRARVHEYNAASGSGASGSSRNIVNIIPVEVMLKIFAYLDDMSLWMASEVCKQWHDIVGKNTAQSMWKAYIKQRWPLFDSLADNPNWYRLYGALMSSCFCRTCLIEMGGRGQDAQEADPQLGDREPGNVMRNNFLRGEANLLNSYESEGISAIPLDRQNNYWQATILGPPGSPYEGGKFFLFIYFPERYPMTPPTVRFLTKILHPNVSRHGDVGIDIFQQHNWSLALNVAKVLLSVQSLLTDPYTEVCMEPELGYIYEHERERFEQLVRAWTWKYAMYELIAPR
UniProt O77430: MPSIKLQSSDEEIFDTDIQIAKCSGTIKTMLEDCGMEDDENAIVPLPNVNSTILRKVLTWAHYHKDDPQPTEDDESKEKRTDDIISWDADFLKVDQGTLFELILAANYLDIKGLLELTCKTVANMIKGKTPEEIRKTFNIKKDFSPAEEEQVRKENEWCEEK

Results are given in words; binding and its absence hold for the method and conditions named. In cells and extracts the contact can be indirect. A result given as binding can be weak or reduced; the word gives no strength.

For SkpA (from UniProt O77430 1-162), the binding result is on record as “binds”.

(Values after paper PMC3787007.)
